# Data published in the supplement of paper PMC6411743.
# By UniProt entry, the sequences of proteins in these tests, tags left out. Where a name states a change or a piece, a line headed by the entry shows the natural chain unless it says otherwise.
# UniProt Q9UBN7: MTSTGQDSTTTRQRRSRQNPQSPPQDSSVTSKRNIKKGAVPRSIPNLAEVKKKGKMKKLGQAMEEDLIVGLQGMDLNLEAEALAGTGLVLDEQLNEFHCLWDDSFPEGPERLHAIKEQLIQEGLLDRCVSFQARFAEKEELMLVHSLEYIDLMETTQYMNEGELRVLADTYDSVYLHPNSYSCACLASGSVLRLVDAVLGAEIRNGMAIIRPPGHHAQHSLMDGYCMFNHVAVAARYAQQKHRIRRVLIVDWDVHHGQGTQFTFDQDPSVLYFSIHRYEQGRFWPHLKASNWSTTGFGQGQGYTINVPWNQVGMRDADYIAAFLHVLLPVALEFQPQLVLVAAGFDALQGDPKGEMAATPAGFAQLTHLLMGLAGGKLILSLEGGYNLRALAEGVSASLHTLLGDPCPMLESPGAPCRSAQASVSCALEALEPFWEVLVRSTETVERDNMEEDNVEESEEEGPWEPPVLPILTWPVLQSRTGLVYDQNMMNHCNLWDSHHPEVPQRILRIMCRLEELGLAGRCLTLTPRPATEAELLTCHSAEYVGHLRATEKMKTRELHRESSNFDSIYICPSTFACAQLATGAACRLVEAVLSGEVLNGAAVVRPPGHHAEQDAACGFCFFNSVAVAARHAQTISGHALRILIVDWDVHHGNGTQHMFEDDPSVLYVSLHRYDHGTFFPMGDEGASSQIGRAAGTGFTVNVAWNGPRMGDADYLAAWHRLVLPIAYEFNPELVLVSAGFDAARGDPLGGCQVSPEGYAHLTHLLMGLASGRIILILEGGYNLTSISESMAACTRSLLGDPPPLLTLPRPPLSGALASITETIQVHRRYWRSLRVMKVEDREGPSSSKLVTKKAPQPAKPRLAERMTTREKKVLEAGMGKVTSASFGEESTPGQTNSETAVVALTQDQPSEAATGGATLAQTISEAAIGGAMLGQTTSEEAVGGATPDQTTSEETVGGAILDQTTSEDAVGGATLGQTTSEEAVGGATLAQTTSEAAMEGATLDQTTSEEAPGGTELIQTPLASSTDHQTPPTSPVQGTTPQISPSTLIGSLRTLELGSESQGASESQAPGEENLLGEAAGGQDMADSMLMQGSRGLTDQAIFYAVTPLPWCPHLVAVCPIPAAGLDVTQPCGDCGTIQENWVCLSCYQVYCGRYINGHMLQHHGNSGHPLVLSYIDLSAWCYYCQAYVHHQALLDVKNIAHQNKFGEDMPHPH
# UniProt Q9UH03, whole entry: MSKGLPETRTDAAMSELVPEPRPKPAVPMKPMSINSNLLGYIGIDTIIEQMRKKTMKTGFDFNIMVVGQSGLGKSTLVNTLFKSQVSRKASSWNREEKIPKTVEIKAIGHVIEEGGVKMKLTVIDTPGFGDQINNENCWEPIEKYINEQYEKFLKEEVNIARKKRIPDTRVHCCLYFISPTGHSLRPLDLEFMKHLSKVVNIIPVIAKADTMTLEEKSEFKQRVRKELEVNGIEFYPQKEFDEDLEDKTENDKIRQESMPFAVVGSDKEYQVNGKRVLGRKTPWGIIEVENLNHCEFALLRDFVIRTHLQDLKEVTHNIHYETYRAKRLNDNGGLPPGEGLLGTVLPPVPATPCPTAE
# UniProt Q9UJ68: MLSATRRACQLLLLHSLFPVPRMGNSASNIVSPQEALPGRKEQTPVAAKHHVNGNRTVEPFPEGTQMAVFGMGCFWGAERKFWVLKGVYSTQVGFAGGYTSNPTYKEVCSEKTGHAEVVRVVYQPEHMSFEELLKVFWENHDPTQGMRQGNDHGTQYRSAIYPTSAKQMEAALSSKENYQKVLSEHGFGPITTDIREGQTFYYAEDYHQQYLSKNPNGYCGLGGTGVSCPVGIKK
# UniProt Q9UHL0: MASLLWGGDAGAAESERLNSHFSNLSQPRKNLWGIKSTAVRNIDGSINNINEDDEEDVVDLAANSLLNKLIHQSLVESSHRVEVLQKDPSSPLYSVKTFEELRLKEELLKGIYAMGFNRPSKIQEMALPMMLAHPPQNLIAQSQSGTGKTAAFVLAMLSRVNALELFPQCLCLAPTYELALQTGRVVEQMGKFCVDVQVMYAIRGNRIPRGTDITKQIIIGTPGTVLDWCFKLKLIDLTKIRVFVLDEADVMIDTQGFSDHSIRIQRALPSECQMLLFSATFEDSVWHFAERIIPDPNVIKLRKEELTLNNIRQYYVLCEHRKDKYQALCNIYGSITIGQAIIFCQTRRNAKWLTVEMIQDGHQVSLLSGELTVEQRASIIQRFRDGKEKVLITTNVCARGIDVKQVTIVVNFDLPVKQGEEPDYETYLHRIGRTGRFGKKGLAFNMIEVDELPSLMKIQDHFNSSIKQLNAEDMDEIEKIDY
# UniProt Q9UBB5, whole entry: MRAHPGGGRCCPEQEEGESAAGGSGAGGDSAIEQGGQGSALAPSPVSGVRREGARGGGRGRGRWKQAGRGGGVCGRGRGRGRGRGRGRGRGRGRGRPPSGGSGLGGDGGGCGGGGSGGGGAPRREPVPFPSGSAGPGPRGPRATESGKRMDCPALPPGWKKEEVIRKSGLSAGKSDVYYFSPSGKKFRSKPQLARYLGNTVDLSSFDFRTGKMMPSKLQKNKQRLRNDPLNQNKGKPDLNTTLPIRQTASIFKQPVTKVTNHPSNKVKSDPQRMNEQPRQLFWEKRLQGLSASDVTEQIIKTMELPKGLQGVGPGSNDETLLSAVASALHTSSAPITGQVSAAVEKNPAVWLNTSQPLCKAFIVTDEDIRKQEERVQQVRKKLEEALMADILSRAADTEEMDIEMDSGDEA
# UniProt Q9UET6: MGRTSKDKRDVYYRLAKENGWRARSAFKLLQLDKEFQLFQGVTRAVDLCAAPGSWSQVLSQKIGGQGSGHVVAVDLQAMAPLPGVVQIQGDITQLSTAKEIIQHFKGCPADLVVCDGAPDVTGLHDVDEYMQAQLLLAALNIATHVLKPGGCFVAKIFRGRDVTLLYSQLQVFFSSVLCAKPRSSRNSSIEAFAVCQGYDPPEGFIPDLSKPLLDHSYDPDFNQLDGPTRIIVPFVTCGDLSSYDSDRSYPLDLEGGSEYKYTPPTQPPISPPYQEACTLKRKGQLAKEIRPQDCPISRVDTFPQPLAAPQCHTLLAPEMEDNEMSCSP
# UniProt Q9UIC8: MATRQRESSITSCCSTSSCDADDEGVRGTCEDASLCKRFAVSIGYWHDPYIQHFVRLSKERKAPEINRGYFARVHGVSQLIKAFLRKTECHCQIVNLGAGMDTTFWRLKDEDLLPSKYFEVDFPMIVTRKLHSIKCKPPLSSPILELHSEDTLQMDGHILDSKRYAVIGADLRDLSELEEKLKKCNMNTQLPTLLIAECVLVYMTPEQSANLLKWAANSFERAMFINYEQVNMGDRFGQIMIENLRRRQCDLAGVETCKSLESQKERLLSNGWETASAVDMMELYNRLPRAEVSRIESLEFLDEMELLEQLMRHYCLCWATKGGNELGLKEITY
# UniProt Q9UN37: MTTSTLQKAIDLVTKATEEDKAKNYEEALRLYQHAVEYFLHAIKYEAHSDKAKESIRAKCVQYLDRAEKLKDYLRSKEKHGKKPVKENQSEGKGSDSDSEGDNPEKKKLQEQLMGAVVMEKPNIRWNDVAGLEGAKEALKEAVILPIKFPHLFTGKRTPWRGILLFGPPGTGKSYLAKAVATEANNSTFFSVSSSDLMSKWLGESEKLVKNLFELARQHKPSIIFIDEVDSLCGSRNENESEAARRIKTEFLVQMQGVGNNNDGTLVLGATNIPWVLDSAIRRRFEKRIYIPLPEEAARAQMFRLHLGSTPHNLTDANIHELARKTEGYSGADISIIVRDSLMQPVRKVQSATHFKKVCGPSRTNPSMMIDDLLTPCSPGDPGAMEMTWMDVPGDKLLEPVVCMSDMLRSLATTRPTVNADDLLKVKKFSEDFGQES
# UniProt Q9UK61: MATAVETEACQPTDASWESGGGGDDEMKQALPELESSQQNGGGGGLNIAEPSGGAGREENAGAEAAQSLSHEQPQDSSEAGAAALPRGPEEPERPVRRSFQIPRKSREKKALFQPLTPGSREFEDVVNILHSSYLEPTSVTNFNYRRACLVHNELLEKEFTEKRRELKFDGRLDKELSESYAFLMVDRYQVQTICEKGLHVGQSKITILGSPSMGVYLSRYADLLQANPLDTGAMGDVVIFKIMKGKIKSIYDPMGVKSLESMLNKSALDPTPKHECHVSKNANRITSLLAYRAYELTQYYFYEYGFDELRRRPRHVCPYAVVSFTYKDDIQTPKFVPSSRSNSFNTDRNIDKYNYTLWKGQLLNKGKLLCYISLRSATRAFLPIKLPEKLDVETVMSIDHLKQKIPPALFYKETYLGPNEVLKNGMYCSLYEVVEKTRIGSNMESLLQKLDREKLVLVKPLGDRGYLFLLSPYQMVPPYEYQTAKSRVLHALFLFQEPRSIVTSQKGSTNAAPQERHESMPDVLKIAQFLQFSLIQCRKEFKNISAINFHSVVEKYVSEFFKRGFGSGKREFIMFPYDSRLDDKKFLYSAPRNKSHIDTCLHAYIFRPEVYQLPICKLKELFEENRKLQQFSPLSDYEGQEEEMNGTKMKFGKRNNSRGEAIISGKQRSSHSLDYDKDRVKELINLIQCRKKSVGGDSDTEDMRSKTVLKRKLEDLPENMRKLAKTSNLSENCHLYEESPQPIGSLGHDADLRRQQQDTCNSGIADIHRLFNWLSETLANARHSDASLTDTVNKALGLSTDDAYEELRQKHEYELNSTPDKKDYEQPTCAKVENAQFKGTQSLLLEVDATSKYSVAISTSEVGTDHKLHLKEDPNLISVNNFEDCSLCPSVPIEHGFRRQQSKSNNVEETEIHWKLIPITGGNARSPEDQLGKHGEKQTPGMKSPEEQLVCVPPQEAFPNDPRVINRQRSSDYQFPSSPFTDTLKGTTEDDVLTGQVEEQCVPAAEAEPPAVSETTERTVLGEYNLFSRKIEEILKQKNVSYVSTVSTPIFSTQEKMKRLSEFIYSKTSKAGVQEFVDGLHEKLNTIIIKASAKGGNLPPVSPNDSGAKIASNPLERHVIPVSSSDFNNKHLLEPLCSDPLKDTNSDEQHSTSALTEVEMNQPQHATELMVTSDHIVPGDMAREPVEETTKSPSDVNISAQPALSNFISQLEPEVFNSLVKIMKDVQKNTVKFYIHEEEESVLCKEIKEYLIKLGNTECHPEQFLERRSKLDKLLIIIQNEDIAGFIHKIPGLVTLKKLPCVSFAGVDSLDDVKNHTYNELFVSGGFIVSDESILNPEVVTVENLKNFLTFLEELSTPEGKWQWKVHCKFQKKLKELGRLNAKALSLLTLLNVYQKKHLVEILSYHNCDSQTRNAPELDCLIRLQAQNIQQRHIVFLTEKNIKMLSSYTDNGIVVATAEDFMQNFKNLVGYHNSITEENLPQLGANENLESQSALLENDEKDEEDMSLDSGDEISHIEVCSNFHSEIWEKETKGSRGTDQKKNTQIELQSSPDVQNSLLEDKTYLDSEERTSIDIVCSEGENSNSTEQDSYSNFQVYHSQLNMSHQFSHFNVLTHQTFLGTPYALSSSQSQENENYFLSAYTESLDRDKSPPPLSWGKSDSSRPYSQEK
# UniProt Q9UFC0: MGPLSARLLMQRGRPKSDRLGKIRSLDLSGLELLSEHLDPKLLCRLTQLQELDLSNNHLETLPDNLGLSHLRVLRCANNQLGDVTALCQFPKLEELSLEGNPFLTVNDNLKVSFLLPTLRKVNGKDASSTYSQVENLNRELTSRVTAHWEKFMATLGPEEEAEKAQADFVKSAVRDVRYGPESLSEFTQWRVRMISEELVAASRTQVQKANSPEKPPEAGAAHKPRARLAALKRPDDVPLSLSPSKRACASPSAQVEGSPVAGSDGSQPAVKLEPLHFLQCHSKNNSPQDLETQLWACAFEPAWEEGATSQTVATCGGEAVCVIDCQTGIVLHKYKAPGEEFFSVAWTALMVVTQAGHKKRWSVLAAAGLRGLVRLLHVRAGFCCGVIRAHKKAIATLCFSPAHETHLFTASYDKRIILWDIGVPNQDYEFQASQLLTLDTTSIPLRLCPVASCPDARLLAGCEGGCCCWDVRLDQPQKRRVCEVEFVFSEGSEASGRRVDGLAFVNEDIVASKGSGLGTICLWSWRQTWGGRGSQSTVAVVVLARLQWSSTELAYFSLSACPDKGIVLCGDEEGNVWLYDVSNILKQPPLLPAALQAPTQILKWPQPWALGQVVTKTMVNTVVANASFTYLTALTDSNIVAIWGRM
# UniProt Q9ULR0: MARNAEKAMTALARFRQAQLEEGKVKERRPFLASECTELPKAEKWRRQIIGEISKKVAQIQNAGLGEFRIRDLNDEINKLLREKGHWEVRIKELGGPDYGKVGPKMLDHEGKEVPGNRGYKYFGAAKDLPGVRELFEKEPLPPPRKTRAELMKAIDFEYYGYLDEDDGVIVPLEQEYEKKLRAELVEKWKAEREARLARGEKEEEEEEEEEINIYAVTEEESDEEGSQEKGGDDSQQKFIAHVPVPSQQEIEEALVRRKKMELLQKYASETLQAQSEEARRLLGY
# UniProt Q9UDW1: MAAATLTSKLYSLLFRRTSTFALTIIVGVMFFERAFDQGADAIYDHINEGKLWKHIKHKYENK
# ± gives the standard deviation of the averaged measurements. Only a part is listed here, and it is no random draw.
# Compound: Nc1ncnc2c1ncn2[C@@H]1O[C@H](COP(=O)(O)OP(=O)(O)OP(=O)(O)O)[C@@H](O)[C@H]1O [adenosine triphosphate]
# Experiment: NP40-soluble protein abundance relative to vehicle (solubility fold change) (ratio); higher = more soluble protein in presence of ATP
# Outline: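 Jurkat crude lysate prepared with a Dounce homogeniser was treated at eight concentrations spanning 0.1 to 10 mM, 10 min at room temperature then 3 min at 37 °C. Solubilisation with 0.8% NP40 and benzonase and ultracentrifugation preceded TMT labelling of the supernatant for LC-MS/MS. Fold change against the detergent-processed vehicle was determined per replicate from vsn-normalised intensities, across three independent experiments.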
Target,NP40-soluble protein abundance (concentration: 1mM),NP40-soluble protein abundance (concentration: 2mM),NP40-soluble protein abundance (concentration: 4mM),NP40-soluble protein abundance (concentration: 6mM),NP40-soluble protein abundance (concentration: 8mM),NP40-soluble protein abundance (concentration: 10mM)
HDAC6 (UniProt Q9UBN7),0.98 ± 0.063,0.991 ± 0.051,0.955 ± 0.038,0.964 ± 0.064,0.964 ± 0.056,0.952 ± 0.049
UniProt Q9UN36 and related entries,0.99 ± 0.026,1.02 ± 0.048,1.01 ± 0.04,0.997 ± 0.036,0.968 ± 0.058,0.948 ± 0.029
ZNFX1 (UniProt Q9P2E3),1.072 ± 0.0053,1.05 ± 0.015,1.06 ± 0.014,1.03 ± 0.014,1.08 ± 0.043,1.01 ± 0.048
SMC3 (UniProt Q9UQE7),0.9943 ± 0.0032,0.9787 ± 0.0065,0.968 ± 0.013,1.01 ± 0.036,0.987 ± 0.032,0.97 ± 0.024
UniProt Q9UH03 and related entries,0.993 ± 0.02,0.979 ± 0.034,0.954 ± 0.055,1.02 ± 0.037,0.986 ± 0.015,0.952 ± 0.039
UniProt Q9UJ68 and related entries,0.993 ± 0.11,0.99 ± 0.11,0.96 ± 0.17,0.989 ± 0.13,0.92 ± 0.072,0.96 ± 0.099
UniProt Q9P2R7 and related entries,0.972 ± 0.03,0.954 ± 0.034,0.927 ± 0.036,0.952 ± 0.043,0.961 ± 0.059,0.924 ± 0.036
UniProt Q9UI08-2|Q9UI08,0.904 ± 0.05,0.914 ± 0.026,0.876 ± 0.037,0.903 ± 0.047,0.86 ± 0.025,0.882 ± 0.025
MRC2 (UniProt Q9UBG0),0.96 ± 0.047,0.954 ± 0.04,0.982 ± 0.046,0.988 ± 0.051,0.972 ± 0.031,0.936 ± 0.048
RCC2 (UniProt Q9P258),1.04 ± 0.045,1.03 ± 0.048,1.03 ± 0.056,1.02 ± 0.072,1.02 ± 0.052,1.03 ± 0.045
PA2G4 (UniProt Q9UQ80),0.9222 ± 0.0047,0.922 ± 0.015,0.874 ± 0.026,0.957 ± 0.046,0.91 ± 0.021,0.934 ± 0.039
UniProt Q9UHL0 and related entries,0.994 ± 0.011,0.935 ± 0.12,1.19 ± 0.082,1.278 ± 0.0052,1.03 ± 0.11,1.01 ± 0.17
WARS2 (UniProt Q9UGM6),0.939 ± 0.09,1.03 ± 0.054,1.02 ± 0.04,1.09 ± 0.038,0.965 ± 0.095,1.04 ± 0.041
UniProt Q9UK53-2|A0A0C4DFW2|Q9UK53 and related entries,1.02 ± 0.11,1.02 ± 0.043,0.994 ± 0.057,1.02 ± 0.12,1.05 ± 0.07,1.05 ± 0.08
MBD2 (UniProt Q9UBB5),1.07 ± 0.11,1.05 ± 0.11,1.07 ± 0.1,1.1 ± 0.19,1.09 ± 0.097,1.08 ± 0.12
UniProt Q9UN86-2|Q9UN86,1.08 ± 0.048,1.13 ± 0.038,1.17 ± 0.038,1.33 ± 0.049,1.25 ± 0.025,1.29 ± 0.046
CHD7 (UniProt Q9P2D1),1.03 ± 0.088,1.02 ± 0.067,1.04 ± 0.037,1.04 ± 0.086,1.01 ± 0.054,1.02 ± 0.059
UniProt Q9ULC4 and related entries,0.98 ± 0.034,0.985 ± 0.039,0.971 ± 0.027,0.927 ± 0.078,0.977 ± 0.052,0.98 ± 0.05
UniProt Q9UET6 and related entries,1.11 ± 0.1,1.11 ± 0.06,1.11 ± 0.035,1.18 ± 0.16,1.12 ± 0.1,1.09 ± 0.045
UniProt Q9UNA1 and related entries,1 ± 0.049,0.991 ± 0.033,1.02 ± 0.06,1.01 ± 0.076,1 ± 0.033,1.03 ± 0.06
UniProt Q9P275 and related entries,1.05 ± 0.065,1.08 ± 0.074,1.21 ± 0.052,1.29 ± 0.15,1.35 ± 0.17,1.44 ± 0.12
LCMT1 (UniProt Q9UIC8),0.987 ± 0.045,0.987 ± 0.074,0.996 ± 0.068,0.975 ± 0.11,1.01 ± 0.083,0.976 ± 0.048
MRPS33 (UniProt Q9Y291),1.02 ± 0.19,0.981 ± 0.18,0.883 ± 0.16,0.915 ± 0.37,0.847 ± 0.24,0.792 ± 0.16
UniProt Q9UJX5 and related entries,0.995 ± 0.092,1 ± 0.04,0.987 ± 0.015,0.95 ± 0.03,0.977 ± 0.043,0.989 ± 0.032
UniProt Q9UKV8,1.09 ± 0.022,1.09 ± 0.019,1.11 ± 0.034,1.06 ± 0.032,1.12 ± 0.026,1.15 ± 0.016
ANKRD50 (UniProt Q9ULJ7),0.994 ± 0.12,1.02 ± 0.028,0.963 ± 0.034,0.952 ± 0.059,0.943 ± 0.055,0.956 ± 0.051

# Some values from the entries so far:
# Value for MRPS33 (UniProt Q9Y291) under NP40-soluble protein abundance (concentration: 8mM): 0.847 ± 0.24
# Value for UniProt Q9UJ68 and related entries under NP40-soluble protein abundance (concentration: 6mM): 0.989 ± 0.13
# Value for UniProt Q9ULC4 and related entries under NP40-soluble protein abundance (concentration: 1mM): 0.98 ± 0.034

# The list goes on.

Target,NP40-soluble protein abundance (concentration: 1mM),NP40-soluble protein abundance (concentration: 2mM),NP40-soluble protein abundance (concentration: 4mM),NP40-soluble protein abundance (concentration: 6mM),NP40-soluble protein abundance (concentration: 8mM),NP40-soluble protein abundance (concentration: 10mM)
RAB23 (UniProt Q9ULC3),0.937 ± 0.069,0.99 ± 0.051,0.954 ± 0.058,0.947 ± 0.094,0.965 ± 0.057,0.956 ± 0.068
METTL1 (UniProt Q9UBP6),0.978 ± 0.091,1.04 ± 0.056,0.988 ± 0.078,0.963 ± 0.14,0.975 ± 0.17,1.01 ± 0.13
VPS4A (UniProt Q9UN37),1.17 ± 0.03,1.19 ± 0.04,1.17 ± 0.017,1.26 ± 0.013,1.17 ± 0.054,1.17 ± 0.073
UniProt Q9UK61 and related entries,1.1 ± 0.025,1.13 ± 0.027,1.16 ± 0.034,1.16 ± 0.047,1.21 ± 0.034,1.21 ± 0.057
Q9UBK7-2|Q9UNT1-2 (UniProt Q9UNT1+Q9UBK7),0.959 ± 0.039,0.989 ± 0.043,0.959 ± 0.052,0.955 ± 0.022,0.926 ± 0.046,0.924 ± 0.021
ZNF148 (UniProt Q9UQR1),0.98 ± 0.05,1.01 ± 0.014,0.978 ± 0.031,1.04 ± 0.063,0.985 ± 0.04,0.95 ± 0.0098
UniProt Q9UQ49 and related entries,0.985 ± 0.16,0.971 ± 0.074,0.961 ± 0.059,0.795 ± 0.31,0.811 ± 0.21,1.02 ± 0.06
PSMC3IP (UniProt Q9P2W1),0.968 ± 0.051,1 ± 0.018,0.952 ± 0.029,0.973 ± 0.061,0.944 ± 0.029,0.911 ± 0.033
UniProt Q9UKZ1,1.08 ± 0.049,1.11 ± 0.016,1.17 ± 0.062,1.21 ± 0.069,1.22 ± 0.032,1.2 ± 0.072
LRWD1 (UniProt Q9UFC0),1.04 ± 0.039,1.03 ± 0.048,1.02 ± 0.049,1.02 ± 0.044,1.03 ± 0.054,1.02 ± 0.027
UniProt Q9UK76,0.884 ± 0.071,0.875 ± 0.06,0.902 ± 0.033,0.914 ± 0.047,0.817 ± 0.031,0.843 ± 0.061
UniProt Q9UGU0 and related entries,1.09 ± 0.056,1.13 ± 0.093,1.19 ± 0.042,1.29 ± 0.087,1.32 ± 0.067,1.44 ± 0.086
PLXNA1 (UniProt Q9UIW2),1.01 ± 0.035,1.03 ± 0.07,1.022 ± 0.0098,1 ± 0.075,0.987 ± 0.056,0.998 ± 0.037
TMEM181 (UniProt Q9P2C4),0.99 ± 0.054,1.04 ± 0.17,1.09 ± 0.21,1.02 ± 0.1,1.04 ± 0.12,0.978 ± 0.053
NENF (UniProt Q9UMX5),0.955 ± 0.053,0.961 ± 0.064,0.962 ± 0.05,0.94 ± 0.063,0.9121 ± 0.0089,0.875 ± 0.055
RAB22A (UniProt Q9UL26),0.971 ± 0.16,0.955 ± 0.056,1.02 ± 0.09,0.896 ± 0.14,0.925 ± 0.048,0.908 ± 0.039
KMT2B (UniProt Q9UMN6),0.993 ± 0.082,1.01 ± 0.015,1.07 ± 0.071,1.07 ± 0.07,1.02 ± 0.012,1.03 ± 0.032
UniProt Q9ULR0 and related entries,0.955 ± 0.066,0.958 ± 0.062,0.93 ± 0.071,0.961 ± 0.087,0.945 ± 0.066,0.952 ± 0.068
UniProt Q9ULJ3,1 ± 0.037,0.979 ± 0.053,0.958 ± 0.053,0.939 ± 0.084,0.886 ± 0.053,0.903 ± 0.022
UniProt Q9UEW8 and related entries,1.01 ± 0.055,0.982 ± 0.065,0.938 ± 0.064,0.949 ± 0.016,0.941 ± 0.027,0.931 ± 0.028
UniProt Q9UPY8 and related entries,0.934 ± 0.05,0.956 ± 0.031,0.96 ± 0.073,0.961 ± 0.017,0.892 ± 0.051,0.915 ± 0.026
UniProt Q9UH92 and related entries,1.07 ± 0.056,1.09 ± 0.13,1.06 ± 0.13,1.06 ± 0.036,0.991 ± 0.039,0.926 ± 0.034
UniProt Q9UNL4 and related entries,1.1 ± 0.066,1.18 ± 0.091,1.28 ± 0.043,1.26 ± 0.12,1.23 ± 0.04,1.37 ± 0.2
UniProt Q9UDW1,0.796 ± 0.055,0.816 ± 0.1,0.817 ± 0.1,0.699 ± 0.093,0.766 ± 0.12,0.706 ± 0.1
UniProt Q9UKA9 and related entries,0.963 ± 0.045,1.01 ± 0.04,0.958 ± 0.053,0.978 ± 0.086,0.947 ± 0.049,0.972 ± 0.024
GINS2 (UniProt Q9Y248),0.98 ± 0.069,0.979 ± 0.035,0.964 ± 0.041,0.965 ± 0.037,1.01 ± 0.018,0.942 ± 0.09
